These are yes or no findings as the source states them, for the method shown. Binding seen in cells or lysates may run through a third protein. Some binding calls cover weakened binding; strength is not graded here.
Target: T1, FOXM1 (human (endogenous in MV4-11)) (UniProt Q08050)
T1 sequence: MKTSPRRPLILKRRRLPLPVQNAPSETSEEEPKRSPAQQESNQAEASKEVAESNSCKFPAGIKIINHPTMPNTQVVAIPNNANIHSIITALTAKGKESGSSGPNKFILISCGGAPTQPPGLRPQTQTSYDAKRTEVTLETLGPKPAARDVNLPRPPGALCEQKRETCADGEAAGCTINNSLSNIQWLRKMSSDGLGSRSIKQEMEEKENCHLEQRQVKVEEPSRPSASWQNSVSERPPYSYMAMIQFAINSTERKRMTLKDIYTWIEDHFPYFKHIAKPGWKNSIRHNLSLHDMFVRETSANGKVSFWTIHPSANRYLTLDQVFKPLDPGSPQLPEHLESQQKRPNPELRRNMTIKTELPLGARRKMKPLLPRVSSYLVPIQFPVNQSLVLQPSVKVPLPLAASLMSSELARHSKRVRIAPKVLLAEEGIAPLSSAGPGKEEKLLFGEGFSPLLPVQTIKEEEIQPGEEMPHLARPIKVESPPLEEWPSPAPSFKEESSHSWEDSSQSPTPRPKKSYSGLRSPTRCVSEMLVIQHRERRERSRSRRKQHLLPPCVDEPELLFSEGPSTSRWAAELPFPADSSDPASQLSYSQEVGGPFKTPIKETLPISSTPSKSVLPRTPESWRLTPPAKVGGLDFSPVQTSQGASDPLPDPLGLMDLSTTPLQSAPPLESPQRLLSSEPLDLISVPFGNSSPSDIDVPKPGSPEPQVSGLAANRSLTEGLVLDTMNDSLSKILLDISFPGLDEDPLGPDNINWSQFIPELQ
Experiment: co-IP; endogenous proteins in MV4-11 cell lysate; NETN buffer (150 mM NaCl, 1 mM EDTA, 2 mM Tris-HCl, 0.5% NP-40, pH 7.5); FOXM1 antibody plus Protein G agarose beads, 4 °C overnight; western blot

Protein sequences, listed by entry. Tags and fused reporters are not part of them.
UniProt P35222: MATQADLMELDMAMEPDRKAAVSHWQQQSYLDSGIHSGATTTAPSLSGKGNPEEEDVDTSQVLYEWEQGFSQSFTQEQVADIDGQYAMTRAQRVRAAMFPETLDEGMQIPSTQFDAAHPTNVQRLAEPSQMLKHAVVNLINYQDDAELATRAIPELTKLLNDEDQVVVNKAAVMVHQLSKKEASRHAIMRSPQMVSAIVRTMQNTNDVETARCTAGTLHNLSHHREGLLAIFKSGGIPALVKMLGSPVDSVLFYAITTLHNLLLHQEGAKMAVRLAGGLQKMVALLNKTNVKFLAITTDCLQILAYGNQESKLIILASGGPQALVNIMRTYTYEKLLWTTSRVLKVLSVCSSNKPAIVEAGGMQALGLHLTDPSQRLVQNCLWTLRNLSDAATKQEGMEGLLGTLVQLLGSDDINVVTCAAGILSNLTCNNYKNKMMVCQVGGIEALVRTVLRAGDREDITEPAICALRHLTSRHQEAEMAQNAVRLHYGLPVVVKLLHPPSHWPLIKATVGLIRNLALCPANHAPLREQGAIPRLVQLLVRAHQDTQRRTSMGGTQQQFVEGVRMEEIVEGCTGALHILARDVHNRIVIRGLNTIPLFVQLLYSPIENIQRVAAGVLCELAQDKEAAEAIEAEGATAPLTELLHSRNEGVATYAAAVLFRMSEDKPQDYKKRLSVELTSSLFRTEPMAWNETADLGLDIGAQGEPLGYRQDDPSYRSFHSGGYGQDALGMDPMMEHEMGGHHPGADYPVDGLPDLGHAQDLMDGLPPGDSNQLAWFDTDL

β-CATENIN (from UniProt P35222 1-781)
binding: binds

Source: article PMC7026046
